From PubChem BioAssay AID449 (The Scripps Research Institute Molecular Screening Center, 2006)
The other results are listed elsewhere or left out. These are further read-outs of the screen, such as a control signal, another cell line or another target. No call is given for them. Compounds called inactive in the main read-out are mostly missing here.

By UniProt entry, the sequences of proteins in these tests, tags left out.
UniProt P21453, whole entry, looked up: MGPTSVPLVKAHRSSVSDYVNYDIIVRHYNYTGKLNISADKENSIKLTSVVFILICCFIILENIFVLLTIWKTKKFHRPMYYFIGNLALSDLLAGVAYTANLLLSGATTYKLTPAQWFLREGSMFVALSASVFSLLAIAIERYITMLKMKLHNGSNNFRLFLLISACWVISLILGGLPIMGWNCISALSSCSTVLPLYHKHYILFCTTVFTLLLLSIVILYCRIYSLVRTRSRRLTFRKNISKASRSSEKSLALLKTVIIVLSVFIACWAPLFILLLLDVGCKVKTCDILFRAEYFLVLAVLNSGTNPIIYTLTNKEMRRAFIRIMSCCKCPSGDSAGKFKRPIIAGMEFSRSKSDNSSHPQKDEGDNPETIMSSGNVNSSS

molecular target: Sphingosine 1-phosphate receptor 1 (Homo sapiens) (UniProt P21453); test: activation or potentiation of human S1P1 signaling – cell-based, primary and confirmation screens, CRE-bla reporter, primary screen (AID 449); conditions: S1P1 CRE-bla cells, forskolin, beta-lactamase FRET, potentiator mode; measured here: confirmation screen, triplicate average; at 9.5 µM; stronger effect = higher value;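 also: forskolin at 4 µM as EC80 and the EC20 agonist is SEW2871; 100% = SEW2871 at its EC100 plus forskolin at EC80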

Compound	activation
Cn1ncnc2c(=O)n(C)c(=O)nc1-2	105%
CCC(=NCCOc1ccc(Cl)cc1)c1c(O)n(C)c(=O)n(C)c1=O	87%
CCn1nc(-c2ccccc2)nc2c(=O)n(C)c(=O)nc1-2	106%
CCn1nc(-c2cccs2)nc2c(=O)n(C)c(=O)nc1-2	86.5%
Oc1ccc(C2NCc3ccccc3-n3cccc32)cc1Cl (stereo not given)	93.7%
